Test results taken from paper PMC11852716, “c-di-GMP phosphodiesterase ProE interacts with quorum sensing protein PqsE to promote pyocyanin production in Pseudomonas aeruginosa” (mSphere, 2025).
No constants are given. Whether binding was seen depends on the method and setting. Binding can be weak; no strength is given.

Amino acid sequences for entries named in this document (tags omitted). A change or cut given only in a name is not applied to a line headed by its entry.
UniProt Q9HTQ9: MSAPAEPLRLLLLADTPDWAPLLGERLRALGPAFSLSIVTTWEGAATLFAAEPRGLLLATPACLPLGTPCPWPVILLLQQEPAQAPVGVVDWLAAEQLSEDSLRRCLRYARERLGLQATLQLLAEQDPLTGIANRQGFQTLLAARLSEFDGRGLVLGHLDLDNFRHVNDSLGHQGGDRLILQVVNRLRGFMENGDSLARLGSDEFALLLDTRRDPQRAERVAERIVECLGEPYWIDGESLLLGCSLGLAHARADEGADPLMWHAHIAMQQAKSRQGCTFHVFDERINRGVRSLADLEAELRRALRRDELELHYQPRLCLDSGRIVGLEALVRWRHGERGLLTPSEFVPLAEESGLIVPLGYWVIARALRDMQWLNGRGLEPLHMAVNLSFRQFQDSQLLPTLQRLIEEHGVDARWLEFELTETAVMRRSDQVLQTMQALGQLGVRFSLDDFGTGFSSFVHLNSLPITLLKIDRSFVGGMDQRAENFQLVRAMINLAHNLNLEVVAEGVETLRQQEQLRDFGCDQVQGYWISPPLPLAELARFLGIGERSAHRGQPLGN
UniProt P20581: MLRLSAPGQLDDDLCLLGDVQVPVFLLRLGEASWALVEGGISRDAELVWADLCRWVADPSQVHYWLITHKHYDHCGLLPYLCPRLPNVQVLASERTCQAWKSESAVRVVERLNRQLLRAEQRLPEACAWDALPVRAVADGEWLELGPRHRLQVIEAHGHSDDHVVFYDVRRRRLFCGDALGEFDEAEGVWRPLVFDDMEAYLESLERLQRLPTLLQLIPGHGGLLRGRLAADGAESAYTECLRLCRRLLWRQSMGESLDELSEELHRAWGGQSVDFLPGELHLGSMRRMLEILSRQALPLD
UniProt P54292: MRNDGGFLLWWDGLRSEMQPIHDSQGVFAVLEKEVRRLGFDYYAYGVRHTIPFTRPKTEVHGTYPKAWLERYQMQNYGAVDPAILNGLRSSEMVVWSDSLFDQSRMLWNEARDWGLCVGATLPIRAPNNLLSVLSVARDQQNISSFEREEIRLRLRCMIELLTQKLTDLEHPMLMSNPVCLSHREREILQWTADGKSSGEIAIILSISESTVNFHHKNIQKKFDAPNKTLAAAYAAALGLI

Target: ProE, bacterial two-hybrid fusion (Pseudomonas aeruginosa) (UniProt Q9HTQ9)
Assay: two-hybrid; BacterioMatch II bacterial two-hybrid in E. coli XL1-Blue MRF' Kan; growth on M9+ His-deficient plate with 2.5 mM 3-AT, 37°C overnight

| Substance | binding |
| --- | --- |
| PqsE, bacterial two-hybrid fusion (from UniProt P20581 1-301) | binds |
| RhlR, bacterial two-hybrid fusion (from UniProt P54292 1-241) | no binding |
